Measurements from publication PMC11229315.
No constants are given. Whether binding was seen depends on the method and setting. Some entries that bind do so weakly or less than the wild type. For some assays here: Tags and fused reporters may be left off the sequences shown.

The chains behind the UniProt entries cited, without tags or fusion partners. Residues count along the entry.
UniProt Q93074, residues 1616-2177: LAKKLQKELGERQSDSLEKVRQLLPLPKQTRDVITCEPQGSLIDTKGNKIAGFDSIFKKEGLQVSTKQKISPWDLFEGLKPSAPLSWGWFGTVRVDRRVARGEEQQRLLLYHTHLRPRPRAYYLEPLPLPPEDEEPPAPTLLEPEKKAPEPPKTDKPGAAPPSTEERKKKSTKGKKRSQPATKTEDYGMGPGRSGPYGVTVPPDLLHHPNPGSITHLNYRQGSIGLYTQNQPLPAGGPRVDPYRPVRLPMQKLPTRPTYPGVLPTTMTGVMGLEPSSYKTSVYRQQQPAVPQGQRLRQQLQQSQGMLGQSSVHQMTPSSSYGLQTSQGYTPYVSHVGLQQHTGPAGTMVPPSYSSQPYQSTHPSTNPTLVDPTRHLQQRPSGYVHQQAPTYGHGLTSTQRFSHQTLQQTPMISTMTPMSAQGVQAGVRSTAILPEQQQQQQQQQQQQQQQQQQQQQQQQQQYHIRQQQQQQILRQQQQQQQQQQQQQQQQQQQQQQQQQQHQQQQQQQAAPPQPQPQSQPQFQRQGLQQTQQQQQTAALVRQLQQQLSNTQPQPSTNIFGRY

Legend:
[1] = target: T1, GST-tagged CARM1 (UniProt Q86X55); test: pull-down; purified full length (FL) or region 3-deleted (Δ3) CARM1 mixed with GATAD2A or MED12 C-terminus (Supplementary Figure S1L); details not shown; both purified
T1 sequence: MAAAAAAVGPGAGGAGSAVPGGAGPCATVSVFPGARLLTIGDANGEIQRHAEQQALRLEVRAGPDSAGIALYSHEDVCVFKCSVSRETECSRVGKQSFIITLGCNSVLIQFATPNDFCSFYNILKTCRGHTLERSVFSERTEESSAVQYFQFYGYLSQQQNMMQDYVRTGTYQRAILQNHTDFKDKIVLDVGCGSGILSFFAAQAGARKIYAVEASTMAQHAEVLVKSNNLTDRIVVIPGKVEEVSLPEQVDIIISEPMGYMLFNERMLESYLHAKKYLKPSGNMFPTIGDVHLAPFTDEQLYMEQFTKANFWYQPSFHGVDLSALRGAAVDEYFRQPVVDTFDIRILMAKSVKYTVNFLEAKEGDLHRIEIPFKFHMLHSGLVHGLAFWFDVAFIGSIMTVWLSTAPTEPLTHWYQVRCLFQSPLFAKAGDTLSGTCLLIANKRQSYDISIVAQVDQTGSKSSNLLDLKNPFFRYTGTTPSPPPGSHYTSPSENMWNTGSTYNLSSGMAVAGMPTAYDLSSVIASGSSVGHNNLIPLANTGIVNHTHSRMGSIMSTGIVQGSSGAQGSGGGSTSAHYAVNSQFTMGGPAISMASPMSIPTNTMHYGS

[2] = target: T2, purified region 3-deleted (Δ3) CARM1 (UniProt Q86X55); test: as above
T2 sequence: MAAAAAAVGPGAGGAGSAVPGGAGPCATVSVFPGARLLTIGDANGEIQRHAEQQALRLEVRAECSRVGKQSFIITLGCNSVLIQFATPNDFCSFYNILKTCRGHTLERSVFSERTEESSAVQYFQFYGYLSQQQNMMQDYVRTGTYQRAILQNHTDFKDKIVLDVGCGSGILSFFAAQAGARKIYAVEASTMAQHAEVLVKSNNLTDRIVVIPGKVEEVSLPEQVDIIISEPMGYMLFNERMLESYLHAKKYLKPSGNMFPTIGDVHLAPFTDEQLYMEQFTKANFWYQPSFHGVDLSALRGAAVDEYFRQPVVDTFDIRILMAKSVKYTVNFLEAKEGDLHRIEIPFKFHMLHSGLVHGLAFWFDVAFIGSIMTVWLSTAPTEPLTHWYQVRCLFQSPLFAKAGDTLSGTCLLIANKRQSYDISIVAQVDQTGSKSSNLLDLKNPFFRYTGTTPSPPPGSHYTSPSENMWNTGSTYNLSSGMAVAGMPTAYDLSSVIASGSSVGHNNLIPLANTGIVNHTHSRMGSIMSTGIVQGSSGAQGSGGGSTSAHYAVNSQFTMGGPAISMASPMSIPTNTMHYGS

MED12 C-terminus (aa 1616–2177) (from UniProt Q93074 1616-2177) (domain or fragment)
binding [1]: binds | binding [2]: binds
